Reference: the supplement of paper PMC10338343
± gives the standard deviation. The list shows a part of the results, in another mix than the full data. Many of these values have a large error.

system: MILI (PIWIL2) piRISC loaded with L1MC piRNA (26 nt); assay: pre-steady-state target cleavage rate (min^-1); MIWI and MILI are mouse PIWI proteins and EfPiwi is from a freshwater sponge; tags in brackets are library labels; higher = faster piRNA-guided slicing of the target; details: guide: L1MC piRNA 5'p-UAACUAAAUACUAUGCAAGCUGUAGG; auxiliary factor: none (no GTSF1)
Procedure, shortened: (§1)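 The pre-steady-state cleavage rate was obtained by Cleave-'n-Seq with a burst-and-steady-state fit. A transcribed, DNA-blocked target RNA library (0.1 nM) was mixed with 1 nM active affinity-purified piRISC carrying one synthetic guide, with or without 500 nM GTSF1 partner protein, in HEPES–potassium acetate buffer at 33 °C for 0–8 or 0–960 min. Uncleaved targets were sequenced and normalised to depth and to weakly complementary targets, with three trials pooled and k3 capped at 0.0001 min^-1.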

| Sequence | pre-steady-state target cleavage rate |
| --- | --- |
| UCCUCCUACACGUUGCAUAGUAUUUUCAAA | 0.00129 ± 0.0046 |
| UCCUCCUACAGCUUGCUAAGUAUUUAGAAA | 0.00126 ± 0.0046 |
| UCCUGGAACAGCUUGCAUACAUUUUAGUUA | 0.00149 ± 0.0052 |
| UCCUGGAUGUCGAACCUUUGUAUUUAGUUA | 0.000279 ± 0.012 |
| UCCUGCUACAGCUUCCAUAGUAUUUUGUUA | 0.000753 ± 0.0081 |
| UCCUGCUACAGCUUGCAUAGUUAAUAGAAA | 0.00084 ± 0.0056 |
| UCCUGGAACAGCUUCCAUAGAAUUUAGUUA | 0.000497 ± 0.011 |
| UCCUGGAUGUCGAAGCAUAGUUUUUACUUA | 0.000292 ± 0.012 |
| UCCUGGAUGAGCUUGCAUGUAUUUAGUUA | 0.00136 ± 0.0056 |
| UCCUCCUACAGCUUGCAUAGUAAAAAGAAA | 0.0011 ± 0.0045 |
| UCCUGGAUGACCUUGCAUAGUAUUUAGAAA | 0.000996 ± 0.0064 |
| UCCUCCUACAGCUAGCAUAGUAUUUAGAAA | 0.00131 ± 0.0036 |
| UCCUCCUACAGCUUGGUAAGUAUUUUCAAA | 0.000675 ± 0.0073 |
| UCCUGGAACAGCUUGCAUUCUAUUUAGAAA | 0.000493 ± 0.013 |
| UCCUCCUACAGCUUGCAUACAUUUUUCAAA | 0.000624 ± 0.0073 |

system: MIWI (PIWIL1) piRISC loaded with L1MC piRNA (30 nt); assay: as above; details: guide: L1MC piRNA 5'p-UAACUAAAUACUAUGCAAGCUGUAGGUCCU; auxiliary factor: none (no GTSF1)
Procedure, shortened: as §1

| Sequence | pre-steady-state target cleavage rate |
| --- | --- |
| UCCUGGAUCAGCUUGCAUACAAUUUAGUUA | 0.00266 ± 0.0028 |
| UCCUGGAACAGCUUGCAUACAUUUUAGUAA | 0.00108 ± 0.0074 |
| UCCUGGAUGAGCUUGCCAUAGUAUUUAGUUA | 0.00194 ± 0.0043 |
| UCCUCCUACAGGAAGCAUAGUAUUUAGAAA | 0.000328 ± 0.0072 |
| UCCUGGAUGAGCUUGCAUAGAUUUUAGAAA | 0.00103 ± 0.0064 |
| UCCUGCUACAGCUUGCAUAGUUAAUACAAA | 0.00118 ± 0.0055 |
| UCCUGCUACAGCUUGCAUAGUAUUAAGAUA | 0.0027 ± 0.0031 |
| UCCUCCUACAGCUUGCAUAGUAAAAUCAAA | 0.000282 ± 0.012 |
| UCCUGGAACAGCUUGCAAUGUAUUUACAAA | 0.00257 ± 0.0033 |
| UCCUCCUACAGCUACGAUAGUAUUUUCAAA | 0.000204 ± 0.017 |
| UCCUGCUACAGGAAGCAUAGUAUUUACAAA | 0.000458 ± 0.016 |
| UCCUGCUACAGCUUGCAUACAUAAAUCAAA [g12:g25:cont:t1A] | 0.000742 ± 0.014 |
| UCCUGGUACAGCUUGCAUACAAUUUAGAAA | 0.000925 ± 0.0092 |
| UCCUGGAUGUCGAAGCAUAGUAUUUAGCUUA | 0.000524 ± 0.011 |
| UCCUGGUACAGCUUGCAUAGUAAAUAGAAA | 0.000552 ± 0.012 |
| UCCUGGAUGUGCUUGCAUAGUAUUUUCAAA | 0.00192 ± 0.0038 |
| UCCUGGUACAGCUUGCAUACAAUUUAGUUA | 0.00258 ± 0.0027 |
| UCCUGGAUGAGCUUGCAUAGUAAUUAGAAA | 0.00263 ± 0.0046 |
| UCCUGGUACAGCUUCCAUAGUAAUUAGUUA | 0.00107 ± 0.0066 |
| UCCUGGUACAGCUUGCAUAGUAUAAAGAAA | 0.00158 ± 0.0056 |

| Sequence | pre-steady-state target cleavage rate |
| --- | --- |
| UCCUGGAUCACGAUGCAUAGUAUUUUCAAA | 0.000283 ± 0.011 |
| UCCUGGAUGUCGAAGCACAGUAUUUAGUUA | 0.000899 ± 0.007 |
| UCCUGGAUGUCGAUGCAUAGCUAUUUAGUUA | 0.000857 ± 0.0087 |
| UCCUGGAUGUGCUUGCAUAGUAAAAAGUAA | 0.000383 ± 0.0078 |
| UCCUCCUACACGUUGCAUAGUAUUUUCAAA | 0.000944 ± 0.0068 |
| UCCUCCUACAGCUUGCUAAGUAUUUAGAAA | 0.00114 ± 0.0062 |
| UCCUGGAACAGCUUGCAUACAUUUUAGUUA | 0.000261 ± 0.016 |
| UCCUGGAUGUCGAACCUUUGUAUUUAGUUA | 0.000358 ± 0.011 |
| UCCUGCUACAGCUUCCAUAGUAUUUUGUUA | 0.00161 ± 0.0058 |
| UCCUGCUACAGCUUGCAUAGUUAAUAGAAA | 0.00164 ± 0.0045 |
| UCCUGGAACAGCUUCCAUAGAAUUUAGUUA | 0.000986 ± 0.0058 |
| UCCUGGAUGUCGAAGCAUAGUUUUUACUUA | 0.000292 ± 0.021 |
| UCCUGGAUGAGCUUGCAUGUAUUUAGUUA | 0.000975 ± 0.004 |
| UCCUCCUACAGCUUGCAUAGUAAAAAGAAA | 0.000883 ± 0.0075 |
| UCCUGGAUGACCUUGCAUAGUAUUUAGAAA | 0.00194 ± 0.0049 |
| UCCUCCUACAGCUAGCAUAGUAUUUAGAAA | 0.00138 ± 0.0043 |
| UCCUCCUACAGCUUGGUAAGUAUUUUCAAA | 0.000278 ± 0.01 |
| UCCUGGAACAGCUUGCAUUCUAUUUAGAAA | 0.000319 ± 0.01 |
| UCCUCCUACAGCUUGCAUACAUUUUUCAAA | 0.000633 ± 0.0099 |
